Experimental data as given in doi:10.1101/2025.06.20.660715.
Where two headings read alike, the source gives them in different places. No constants are given. Whether binding was seen depends on the method and setting. Binding seen in cells or lysates may run through a third protein. A yes stands for co-enrichment or nearness to the bait. Other partners may have been found.

By UniProt entry, the sequences of proteins in these tests, tags left out.
UniProt O94921: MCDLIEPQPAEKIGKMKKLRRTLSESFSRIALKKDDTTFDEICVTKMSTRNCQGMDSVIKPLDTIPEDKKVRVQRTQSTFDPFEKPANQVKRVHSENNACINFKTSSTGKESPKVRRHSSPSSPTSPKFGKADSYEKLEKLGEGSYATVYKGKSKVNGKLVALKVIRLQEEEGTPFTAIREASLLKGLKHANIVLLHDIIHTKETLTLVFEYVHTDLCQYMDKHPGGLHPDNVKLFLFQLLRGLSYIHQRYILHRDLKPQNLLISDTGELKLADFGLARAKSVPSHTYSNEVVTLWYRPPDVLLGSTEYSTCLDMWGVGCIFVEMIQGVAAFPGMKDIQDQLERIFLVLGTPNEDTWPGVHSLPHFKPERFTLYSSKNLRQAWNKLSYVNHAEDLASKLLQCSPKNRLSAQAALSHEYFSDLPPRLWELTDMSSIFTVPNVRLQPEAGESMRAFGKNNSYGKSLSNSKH
UniProt Q9UGJ0: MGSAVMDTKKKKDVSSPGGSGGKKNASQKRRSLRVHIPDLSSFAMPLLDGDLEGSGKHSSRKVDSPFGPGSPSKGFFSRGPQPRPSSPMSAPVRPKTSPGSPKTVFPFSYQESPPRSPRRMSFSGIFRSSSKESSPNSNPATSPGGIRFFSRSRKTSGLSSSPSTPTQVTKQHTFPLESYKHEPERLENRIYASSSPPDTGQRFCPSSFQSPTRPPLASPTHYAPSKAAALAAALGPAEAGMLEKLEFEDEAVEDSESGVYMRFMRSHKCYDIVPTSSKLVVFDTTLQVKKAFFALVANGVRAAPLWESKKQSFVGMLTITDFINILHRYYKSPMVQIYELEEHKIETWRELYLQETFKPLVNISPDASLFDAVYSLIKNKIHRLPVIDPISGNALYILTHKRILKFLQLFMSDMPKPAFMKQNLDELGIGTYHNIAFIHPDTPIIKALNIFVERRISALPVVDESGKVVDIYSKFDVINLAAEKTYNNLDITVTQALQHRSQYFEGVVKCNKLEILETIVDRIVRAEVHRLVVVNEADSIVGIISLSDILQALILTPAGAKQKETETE
UniProt Q6P5Z2: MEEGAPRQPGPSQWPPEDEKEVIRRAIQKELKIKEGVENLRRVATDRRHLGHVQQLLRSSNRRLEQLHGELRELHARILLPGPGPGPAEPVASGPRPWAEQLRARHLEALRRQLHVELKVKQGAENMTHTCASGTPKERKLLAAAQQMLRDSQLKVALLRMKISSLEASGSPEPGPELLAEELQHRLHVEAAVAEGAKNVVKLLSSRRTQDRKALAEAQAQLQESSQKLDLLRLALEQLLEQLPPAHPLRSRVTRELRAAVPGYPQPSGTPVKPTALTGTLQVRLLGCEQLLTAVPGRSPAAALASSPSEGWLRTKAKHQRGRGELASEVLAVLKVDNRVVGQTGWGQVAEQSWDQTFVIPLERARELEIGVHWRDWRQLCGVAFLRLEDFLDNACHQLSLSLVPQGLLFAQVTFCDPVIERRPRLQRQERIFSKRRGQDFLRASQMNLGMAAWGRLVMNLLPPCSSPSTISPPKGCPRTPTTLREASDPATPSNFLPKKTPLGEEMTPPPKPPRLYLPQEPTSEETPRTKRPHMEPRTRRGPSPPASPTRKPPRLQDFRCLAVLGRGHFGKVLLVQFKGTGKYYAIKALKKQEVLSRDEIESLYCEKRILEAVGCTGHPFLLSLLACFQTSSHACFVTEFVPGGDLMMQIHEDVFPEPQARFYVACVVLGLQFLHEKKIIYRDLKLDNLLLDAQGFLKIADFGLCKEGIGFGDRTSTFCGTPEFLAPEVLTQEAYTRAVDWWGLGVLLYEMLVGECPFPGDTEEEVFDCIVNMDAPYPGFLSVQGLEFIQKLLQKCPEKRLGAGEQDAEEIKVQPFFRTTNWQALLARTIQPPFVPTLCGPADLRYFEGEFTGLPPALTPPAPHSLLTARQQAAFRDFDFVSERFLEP
UniProt Q8WZ64: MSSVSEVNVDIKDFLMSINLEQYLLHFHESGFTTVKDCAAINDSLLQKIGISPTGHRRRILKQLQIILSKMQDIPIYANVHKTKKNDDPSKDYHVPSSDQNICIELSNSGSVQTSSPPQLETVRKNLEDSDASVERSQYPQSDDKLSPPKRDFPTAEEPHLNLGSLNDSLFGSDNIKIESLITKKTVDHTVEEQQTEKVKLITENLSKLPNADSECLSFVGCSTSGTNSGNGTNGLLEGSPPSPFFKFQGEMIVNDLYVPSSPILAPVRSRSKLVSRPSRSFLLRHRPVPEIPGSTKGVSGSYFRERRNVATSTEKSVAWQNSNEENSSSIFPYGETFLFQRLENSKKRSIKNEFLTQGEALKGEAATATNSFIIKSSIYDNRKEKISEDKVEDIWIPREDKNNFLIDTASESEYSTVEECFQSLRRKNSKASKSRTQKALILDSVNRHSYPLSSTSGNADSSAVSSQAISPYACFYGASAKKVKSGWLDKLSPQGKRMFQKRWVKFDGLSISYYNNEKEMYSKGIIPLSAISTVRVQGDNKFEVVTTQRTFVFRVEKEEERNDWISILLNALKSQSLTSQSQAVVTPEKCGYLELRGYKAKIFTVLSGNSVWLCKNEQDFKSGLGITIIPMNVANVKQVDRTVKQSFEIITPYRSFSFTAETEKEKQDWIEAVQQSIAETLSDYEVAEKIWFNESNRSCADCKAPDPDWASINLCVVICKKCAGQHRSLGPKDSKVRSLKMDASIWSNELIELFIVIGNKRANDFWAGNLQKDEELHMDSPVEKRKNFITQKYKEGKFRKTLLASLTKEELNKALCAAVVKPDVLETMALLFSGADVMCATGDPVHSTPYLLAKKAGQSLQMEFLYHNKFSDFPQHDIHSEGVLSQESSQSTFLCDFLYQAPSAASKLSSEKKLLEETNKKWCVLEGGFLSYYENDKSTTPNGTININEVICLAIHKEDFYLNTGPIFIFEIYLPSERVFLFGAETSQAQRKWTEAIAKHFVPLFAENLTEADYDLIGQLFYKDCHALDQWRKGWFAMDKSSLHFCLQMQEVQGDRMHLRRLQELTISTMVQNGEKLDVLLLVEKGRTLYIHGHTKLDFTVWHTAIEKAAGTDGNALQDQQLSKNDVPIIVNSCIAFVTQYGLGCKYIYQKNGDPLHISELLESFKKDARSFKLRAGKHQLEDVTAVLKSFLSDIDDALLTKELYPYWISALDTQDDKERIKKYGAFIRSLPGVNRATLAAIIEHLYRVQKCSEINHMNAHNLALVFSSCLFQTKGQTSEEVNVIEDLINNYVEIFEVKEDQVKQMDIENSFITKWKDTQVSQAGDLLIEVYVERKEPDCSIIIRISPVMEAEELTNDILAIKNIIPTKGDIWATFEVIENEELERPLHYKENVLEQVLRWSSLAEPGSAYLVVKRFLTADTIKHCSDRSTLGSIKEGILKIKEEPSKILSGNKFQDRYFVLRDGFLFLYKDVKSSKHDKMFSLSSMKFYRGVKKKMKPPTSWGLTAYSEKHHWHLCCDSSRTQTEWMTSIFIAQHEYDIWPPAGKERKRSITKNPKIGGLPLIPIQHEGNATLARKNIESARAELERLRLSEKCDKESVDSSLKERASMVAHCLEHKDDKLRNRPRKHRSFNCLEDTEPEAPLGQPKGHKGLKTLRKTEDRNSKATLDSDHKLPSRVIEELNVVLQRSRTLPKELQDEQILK

How the values were obtained:
Assay in all cases: proximity labelling
[1] = biological target: BirA-tagged KRAS^WT (UniProt P01116)
[2] = biological target: BirA-tagged KRAS^WT (UniProt P01116); remark: listed apart in the source
[3] = biological target: MiniTurbo-tagged KRAS^WT (UniProt P01116)

binding [1]	binding [2]	binding [3]	Substance
binds	binds		GAB2 (from UniProt Q9UQC2 1-676)
		binds	AHNAK2 (from UniProt Q8IVF2 1-5795)
		binds	CDK14 (from UniProt O94921 1-469) (enzyme)
		binds	PRKAG2 (from UniProt Q9UGJ0 1-569)
		binds	PKN3 (from UniProt Q6P5Z2 1-889) (enzyme)
		binds	ARAP2 (from UniProt Q8WZ64 1-1704)
		binds	SHTN1 (from UniProt A0MZ66 1-631)
binds	binds		SHP2 (PTPN11) (from UniProt Q06124 1-593) (enzyme)
